Reference: PMC10449902

Target: T1, rpmC (Pseudomonas aeruginosa (endogenous in strain PAO1)) (UniProt Q9HWE3)
T1 sequence: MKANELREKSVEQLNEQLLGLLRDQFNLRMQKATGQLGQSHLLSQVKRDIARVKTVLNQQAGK
Test: cross-linking; XL-MS: pooled SEC fractions F33–F38 (70S ribosome peak) of ϕKZ-infected PAO1 lysate, cross-linked 1 h at RT with 5 mM DSSO; link FDR 5%

| Substance | binding |
| --- | --- |
| PHIKZ108 (Pseudomonas phage ϕKZ) | binds |
| PHIKZ175 (Pseudomonas phage ϕKZ) | binds |
| PHIKZ285 (Pseudomonas phage ϕKZ) | binds |

No constants are given. Whether binding was seen depends on the method and setting. In cells and extracts the contact can be indirect. A result given as binding can be weak or reduced; the word gives no strength.
